From publication PMC5510845 come the findings set out here.

This assay has as its target protein A tagged GRγ (co-IP) (rat). As to the kind of experiment: co-IP; luciferase-based co-IP; PA-tagged GR precipitated from cleared T-Rex 293 cell extract in IgG-coated microtiter plates, 1 h at 4°C; firefly-V5-tagged partner read by luciferase activity, as fold change over protein A only; cells treated for 1 h with 1 μM dexamethasone or ethanol vehicle.

No constants are given. Whether binding was seen depends on the method and setting. Binding seen in cells or lysates may run through a third protein. Binding can be weak; no strength is given. Sequences can lack the tags named with a protein.

B1: luciferase-BATF3 fusion protein (firefly-V5-tagged BATF3, co-IP) (protein, UniProt Q9NR55 1-127)
chain: MSQGLPAAGSVLQRSVAAPGNQPQPQPQQQSPEDDDRKVRRREKNRVAAQRSRKKQTQKADKLHEEYESLEQENTMLRREIGKLTEELKHLTEALKEHEKMCPLLLCPMNFVPVPPRPDPVAGCLPR
With B1, the binding result is recorded as “binds”.

B2: firefly-V5-tagged JDP2 (Jun dimerization protein-2, co-IP) (protein, UniProt Q8WYK2-2 1-174)
chain: MVAGWPATPPAMMPGQIPDPSVTTGSLPGLGPLTGLPSSALTVEELKYADIRNLGAMIAPLHFLEVKLGKRPQPVKSELDEEEERRKRRREKNKVAAARCRNKKKERTEFLQRESERLELMNAELKTQIEELKQERQQLILMLNRHRPTCIVRTDSVKTPESEGNPLLEQLEKK
B2: the binding entry was “binds”.
